# Results of single-concentration screens

The chains behind the UniProt entries cited, without tags or fusion partners. Residues count along the entry.
UniProt P9WPC5, whole entry: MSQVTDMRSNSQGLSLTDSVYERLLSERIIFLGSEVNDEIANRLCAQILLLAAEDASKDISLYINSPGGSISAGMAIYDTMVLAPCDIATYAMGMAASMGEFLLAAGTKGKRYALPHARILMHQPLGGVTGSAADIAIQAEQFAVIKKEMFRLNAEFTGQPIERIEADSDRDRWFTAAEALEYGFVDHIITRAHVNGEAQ
UniProt P9WPC3, whole entry partner: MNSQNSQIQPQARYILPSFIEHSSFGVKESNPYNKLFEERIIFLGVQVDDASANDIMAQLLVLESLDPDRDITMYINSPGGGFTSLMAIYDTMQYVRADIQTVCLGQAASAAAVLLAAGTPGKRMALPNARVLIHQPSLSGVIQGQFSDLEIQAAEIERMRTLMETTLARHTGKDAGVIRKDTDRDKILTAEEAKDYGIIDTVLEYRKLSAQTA
UniProt Q4DA54, 1-478: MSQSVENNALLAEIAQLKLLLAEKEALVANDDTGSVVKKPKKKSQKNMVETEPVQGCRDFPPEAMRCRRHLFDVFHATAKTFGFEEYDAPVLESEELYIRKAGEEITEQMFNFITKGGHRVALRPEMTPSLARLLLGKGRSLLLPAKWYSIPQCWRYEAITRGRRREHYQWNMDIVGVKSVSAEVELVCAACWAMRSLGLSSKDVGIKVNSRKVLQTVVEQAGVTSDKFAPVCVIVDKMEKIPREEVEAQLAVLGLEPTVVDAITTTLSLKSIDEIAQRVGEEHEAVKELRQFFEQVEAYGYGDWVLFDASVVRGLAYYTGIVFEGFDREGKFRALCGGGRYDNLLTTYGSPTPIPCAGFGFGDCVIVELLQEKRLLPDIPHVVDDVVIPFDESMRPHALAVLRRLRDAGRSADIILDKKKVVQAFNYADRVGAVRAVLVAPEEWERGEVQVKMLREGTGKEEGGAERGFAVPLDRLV
UniProt Q8IDJ8, 1-583: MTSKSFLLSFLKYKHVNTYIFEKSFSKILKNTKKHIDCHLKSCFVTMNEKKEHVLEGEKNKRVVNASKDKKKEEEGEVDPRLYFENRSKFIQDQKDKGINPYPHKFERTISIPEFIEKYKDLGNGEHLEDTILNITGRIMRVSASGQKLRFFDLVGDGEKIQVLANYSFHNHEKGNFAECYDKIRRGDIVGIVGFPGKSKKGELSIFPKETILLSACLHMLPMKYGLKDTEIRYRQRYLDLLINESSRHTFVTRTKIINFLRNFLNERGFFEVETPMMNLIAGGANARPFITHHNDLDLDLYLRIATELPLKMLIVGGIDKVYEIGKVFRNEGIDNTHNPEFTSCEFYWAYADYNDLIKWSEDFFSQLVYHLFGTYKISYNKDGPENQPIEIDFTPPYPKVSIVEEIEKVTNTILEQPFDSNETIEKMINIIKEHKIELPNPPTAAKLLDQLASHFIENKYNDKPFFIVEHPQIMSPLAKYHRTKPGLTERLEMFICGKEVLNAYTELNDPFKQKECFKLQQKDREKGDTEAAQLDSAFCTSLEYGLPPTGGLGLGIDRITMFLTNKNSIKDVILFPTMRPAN
UniProt P9WNZ1, whole entry: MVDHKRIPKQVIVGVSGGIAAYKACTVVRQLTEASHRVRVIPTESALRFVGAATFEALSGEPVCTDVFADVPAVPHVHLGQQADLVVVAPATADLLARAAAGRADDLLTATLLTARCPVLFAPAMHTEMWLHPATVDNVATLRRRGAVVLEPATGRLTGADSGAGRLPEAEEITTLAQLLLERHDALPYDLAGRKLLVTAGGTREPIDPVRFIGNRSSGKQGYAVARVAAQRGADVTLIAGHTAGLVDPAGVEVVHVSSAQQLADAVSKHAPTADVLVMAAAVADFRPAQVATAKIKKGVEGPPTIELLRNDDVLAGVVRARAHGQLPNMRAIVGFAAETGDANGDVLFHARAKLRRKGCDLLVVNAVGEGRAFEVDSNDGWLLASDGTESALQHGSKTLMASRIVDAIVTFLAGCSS
UniProt I6X8D2, whole entry: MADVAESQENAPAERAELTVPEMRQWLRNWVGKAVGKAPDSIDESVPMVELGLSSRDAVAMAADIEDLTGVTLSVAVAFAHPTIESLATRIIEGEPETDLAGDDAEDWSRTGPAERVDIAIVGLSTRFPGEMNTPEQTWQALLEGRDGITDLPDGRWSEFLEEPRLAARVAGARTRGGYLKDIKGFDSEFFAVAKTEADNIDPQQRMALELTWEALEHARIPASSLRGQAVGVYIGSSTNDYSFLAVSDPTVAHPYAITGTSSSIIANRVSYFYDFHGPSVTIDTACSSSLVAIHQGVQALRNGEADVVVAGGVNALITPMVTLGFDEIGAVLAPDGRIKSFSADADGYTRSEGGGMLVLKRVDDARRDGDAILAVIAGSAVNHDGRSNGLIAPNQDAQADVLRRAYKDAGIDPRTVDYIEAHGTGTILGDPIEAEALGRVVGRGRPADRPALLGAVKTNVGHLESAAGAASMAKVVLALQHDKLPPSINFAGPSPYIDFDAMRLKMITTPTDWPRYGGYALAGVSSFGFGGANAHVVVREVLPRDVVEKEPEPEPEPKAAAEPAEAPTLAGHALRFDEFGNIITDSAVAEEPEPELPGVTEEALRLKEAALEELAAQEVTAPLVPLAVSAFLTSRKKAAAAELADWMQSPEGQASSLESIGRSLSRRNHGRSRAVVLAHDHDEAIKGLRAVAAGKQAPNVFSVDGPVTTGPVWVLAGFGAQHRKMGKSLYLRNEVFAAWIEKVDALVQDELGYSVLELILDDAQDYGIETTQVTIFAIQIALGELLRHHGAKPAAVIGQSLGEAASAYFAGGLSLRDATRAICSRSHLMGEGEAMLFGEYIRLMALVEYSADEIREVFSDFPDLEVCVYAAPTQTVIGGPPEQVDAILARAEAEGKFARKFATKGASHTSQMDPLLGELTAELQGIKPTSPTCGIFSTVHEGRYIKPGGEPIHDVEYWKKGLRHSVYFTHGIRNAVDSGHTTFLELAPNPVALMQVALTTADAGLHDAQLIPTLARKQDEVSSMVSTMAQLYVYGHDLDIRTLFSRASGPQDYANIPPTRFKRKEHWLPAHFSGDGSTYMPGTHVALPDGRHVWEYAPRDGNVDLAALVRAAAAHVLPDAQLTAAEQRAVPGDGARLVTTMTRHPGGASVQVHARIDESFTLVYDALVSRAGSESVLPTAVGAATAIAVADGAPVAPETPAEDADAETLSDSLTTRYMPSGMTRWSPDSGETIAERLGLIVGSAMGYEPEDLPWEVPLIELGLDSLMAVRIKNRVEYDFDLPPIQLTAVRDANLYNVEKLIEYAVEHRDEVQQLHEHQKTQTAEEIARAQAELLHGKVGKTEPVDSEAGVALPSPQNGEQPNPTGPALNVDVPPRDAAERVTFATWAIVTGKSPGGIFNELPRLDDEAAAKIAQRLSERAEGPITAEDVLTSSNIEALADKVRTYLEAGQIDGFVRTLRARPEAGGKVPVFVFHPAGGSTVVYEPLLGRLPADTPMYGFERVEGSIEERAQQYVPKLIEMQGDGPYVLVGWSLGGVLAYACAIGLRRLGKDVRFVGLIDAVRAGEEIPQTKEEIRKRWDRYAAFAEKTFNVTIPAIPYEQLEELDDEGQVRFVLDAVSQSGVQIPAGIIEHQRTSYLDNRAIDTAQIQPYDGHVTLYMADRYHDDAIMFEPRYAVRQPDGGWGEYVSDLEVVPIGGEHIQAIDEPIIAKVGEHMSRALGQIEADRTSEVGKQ

Data taken from ChEMBL document CHEMBL3988442, “University of Dundee, Small-Polar-MMV Screening Library” (2021).

Each number is a percent effect as filed.
The record does not define 0% and 100%; most values in the screen are far below 50% and negative numbers occur (in some assays of this library far below -100).
Compounds were drawn at random from those tested, without regard to their results.
Two or more numbers in one place are separate tests of the same structure; such repeats can differ widely.
A dash means the value is not listed here; it may have been measured.

A: 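Protease assay of ClpP1P2, read by the AMC dye that it sets free. Target: ClpP1P2, Mycobacterium tuberculosis (UniProt P9WPC5 and UniProt P9WPC3). Tested at 50 µM. Direction is inferred from only a few compounds that gave an IC50; most scored high, so higher reads as stronger inhibition. Most other retested compounds had strongly negative values. About 69,000 compounds were tested under these conditions; 0.015% (about 10) showed 50% or more at least once.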
B: 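Enzyme assay of histidyl-tRNA synthetase; the read-out is not stated. Target: Histidine-tRNA ligase, Trypanosoma cruzi CL Brener (UniProt Q4DA54). Tested at 30 µM. Direction is inferred from retests: higher values go with stronger inhibition. Of about 69,000 compounds tested this way, about 31 (0.045%) reached 50% or more in at least one test.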
C: 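Lysine-tRNA ligase, Plasmodium falciparum 3D7 (UniProt Q8IDJ8). Enzyme assay of the cytosolic lysyl-tRNA synthetase in 384-well plates, read by luminescence. Tested at 30 µM. Higher reads as stronger inhibition, judged from the few compounds that gave an IC50. Of about 69,000 compounds tested this way, about 49 (0.071%) reached 50% or more in at least one test.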
D: 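Coenzyme A biosynthesis protein CoaBC, Mycobacterium tuberculosis (UniProt P9WNZ1). Enzyme assay of CoaBC with a phosphate dye (Biomol Green) read at 650 nm. Concentration: 30 µM. Higher reads as stronger inhibition, judged from the few compounds that gave an IC50. Most strong results did not repeat in a second test. Size under these conditions: about 67,000 compounds, about 40 of them at 50% or above in at least one test.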
E: 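Cell assay of Leishmania donovani living inside macrophages; the read-out is not stated. Concentration: 30 µM. Higher reads as stronger inhibition (inferred: compounds with an IC50 in retests scored well above the rest). Of about 69,000 compounds tested this way, about 1,000 (1.5%) reached 50% or more in at least one test.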
F: 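Polyketide synthase Pks13, Mycobacterium tuberculosis (UniProt I6X8D2). Enzyme assay of the thioesterase domain of polyketide synthase 13; the read-out is not stated. Tested at 30 µM. The record gives no direction; the compounds picked for IC50 retests had high values, so higher reads as stronger inhibition. Of about 67,000 compounds tested this way, about 300 (0.46%) reached 50% or more in at least one test.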

structure | A | B | C | D | E | F
COCc1cccc(NC(=O)NCc2ncc(C)c(OC)c2C)c1 | -6.536% | 0% | 1.133% | -3.931% | 19.63% | -32.26%
CC(C)c1cc(NC(=O)CN2CCCC2Cn2cccn2)on1 (stereo not given) | -6.802% | -3.03% | -2.968% | 10.18% | 3.6% | -14.79%
Cc1cc(C2CCCN2Cc2cc(-c3ccco3)on2)on1 (stereo not given) | -10.93% | 5.357% | 6.92% | 2.314% | 2.469% | -6.652%
[H][C@]12CC[C@]([H])(CN(C(=O)c3ccccn3)C1)N(C(=O)CCC1CCCC1)C2 | - | - | - | - | 5.506% | -
Cc1cc(=O)n2ncnc2n1CC(O)c1cc(F)ccc1F (stereo not given) | -5.422% | -1.087% | 8.392% | 2.294% | 15.69% | -14.42%
CC(C)[C@H](CO)Nc1nccc(-c2c[nH]nc2-c2ccncc2)n1 | -1.557% | 1.13% | 1.951% | 2.048% | 18.84% and -19.36% | 0.4639%
CCc1ccc2c(C3CN(CC4CCC4)C3)ncn2c1 | -2.732% | 16.67% | 14.72% | -13.5% | - | -
CCc1nc(C2CCCN2C(=O)C2=COCC2)no1 (stereo not given) | -4.528% | -8.679% | -4.079% | -2.216% | -18.56% | -10.74%
CC(C)CC(CO)NS(=O)(=O)Cc1ccon1 (stereo not given) | -6.303% | 4.95% | 3.205% | 4.612% | 4.617% | -4.127%
O=C(CCCc1nnc(-c2ccccc2)o1)N1CCN(C2CC2)CC1 | -34.16% | 2.882% | 1.097% | -2.045% | -10.75% | 9.965%
[H][C@@]12CCN(C3CCC3)C[C@]1([H])OCCN(Cc1ccncc1)C2=O | - | - | - | - | -13.91% | -
NC(=O)c1nnn(-c2ccc(Cl)cc2)n1 | 2.459% | -22% | 3.117% | 0.1318% | 16.44% | 2.937%
CN(C)C(=O)CN1CC=C(c2cnn(Cc3ccccc3)c2)CC1 | -15.37% | 9.453% | 6.101% | 7.654% | 36.81% | -17.57%
N#Cc1ccc(CC(=O)N2CCCC(n3cccn3)C2)cc1 (stereo not given) | -11.24% | -2.521% | 4.872% | 1.08% | -18.21% | 6.859%
CCOC(=O)CC(NC(=O)c1cn(Cc2ccccc2F)nn1)C(C)C (stereo not given) | 1.236% | 3.947% | 4.224% | - | -4.663% | -14.54%
CCN1CCCC1CNCc1cc2cc(C)c(C)cc2[nH]c1=O (stereo not given) | -22.29% | 9.231% | 0.247% | -0.4751% | 24.04% | 14.22%
Cc1n[nH]c(C2CN(CCCOc3cccc(Cl)c3)CCO2)n1 (stereo not given) | -6.798% | 10.93% | 4.34% | 5.623% | 0.6683% | -24.32%
O=C(CCn1cnnn1)N1CCCC(CO)(CCc2ccccc2)C1 (stereo not given) | -9.467% | -4.938% | -3.672% | -1.104% | -9.348% | -3.855%
CCS(=O)(=O)N1CCC(c2nn(CCN(C)C)c3ncccc23)C1 (stereo not given) | -21.97% | 6% | -0.7092% | 4.11% | -3.28% | -4.14%
Cc1nc(-c2ccco2)ccc1C(=O)N1CCCC1Cn1cccn1 (stereo not given) | 2.959% | 5.639% | 0.3871% | 10.18% | -22.49% | 3.103%
Cc1nnc(NC(=O)C2CSCN2C(=O)C2CCCC2)s1 (stereo not given) | -5.175% | 1.064% | 3.603% | 2.664% | -31.76% | -
O=C(N[C@]12CC1CN(C(=O)c1ccco1)C2)c1ccco1 (stereo not given in full) | -2.905% | 7.767% | 4.543% | -0.5089% | 2.824% | -24.69%
CCNC(=O)N1CC[C@H]2CC(=O)N(CCN3CCNC3=O)CC[C@H]2C1 | -7.009% | 9.901% | 4.342% | 7.901% | - | 8.525%
CC(C)CCN(CCC(C)C)Cc1nc2c(cnn2C)c(=O)[nH]1 | -16.96% | 6.745% | -0.4217% | 0.2632% | 14.74% | -12.8%
Cc1nc(C2(NCc3ccc(C#N)cc3F)CCCCC2)no1 | 5.135% | 5.195% | 4.929% | - | -8.658% | 2.519%
O=C(c1cnc(-c2cccnc2)nc1)N1CCC(c2ccncc2)CC1 | -1.077% | 6.931% | 3.01% | 4.479% | 23.69% | -9.053%
Cn1c(CCNc2nccnc2C#N)nc2ccc(F)cc21 | -1.973% | 5.464% | 2.578% | -3.667% | 21.91% | -5.839%
COc1ccccc1C1(CNCc2cccc(O)c2)CCOCC1 | 9.216% | 12.37% | 3.626% | 8.726% | 33.06% | -22.77%
N#Cc1cc2n(n1)CCN(C(=O)CCc1c[nH]c3ccccc13)C2 | -21.39% | 1.932% | 1.166% | 6.335% | 14.81% | -31.63%
CSc1ncc(CNCC2(N3CCCCC3)Cc3ccccc3C2)cn1 | -1.271% | 1.622% | 0.6003% | -3.636% | 20.94% | 2.39%
O=C(NC[C@H]1OC[C@@H]2CCN(c3ccccn3)C[C@@H]21)c1ccco1 | 5.58% | 6.897% | 6.753% | 4.277% | - | 8.223%
Cn1nc2c(cc1=O)CN(Cc1coc(-c3cccc(F)c3)n1)CC2 | -17.03% | 4.36% | 1.39% | 16.65% | -9.207% | 0.2801%
CCOc1ncccc1C(=O)N1CCCC1c1c(C)nn(C)c1Cl (stereo not given) | 4.259% | 3.134% | -0.8307% | -10.72% | 0.3887% | -15.98%
Cl.Fc1cccc(F)c1Cn1c(C2CCCNC2)cc2cccnc21 (stereo not given) | - | - | - | - | -15.48% | -
CN(C)c1ccc(C(=O)Nc2ccn(Cc3ccccn3)n2)cn1 | -11.16% | -0.8929% | 2.176% | -2.642% | -4.538% | 5.16%
Cc1nn(C)c(N(C)C)c1CNCc1cccc(CN(C)C(C)C)c1 | 3.827% | -2.542% | 0.7002% | -18.94% | 27.83% | -9.802%
CN1CCCC2(CCN(C(=O)c3ccncc3)C2)C1 (stereo not given) | 6.936% | 10.92% | 9.23% | 9.939% | 22.08% | -4.19%
O=C(O)CNc1cc(-c2nccnc2N2CCCC2)c2cc[nH]c2n1 | -41.71% | 47.47% | 3.191% | 19.87% | -12.09% | 18.99%
COCCN1CCC(C(=O)N(C)CCOc2ccc(C)cc2Cl)C1 (stereo not given) | 7.046% | 8.235% | 3.156% | -1.72% | 29.69% | -5.86%
Cc1ccccc1N1CCN(C2CCCN(C(=O)CCC(C)C)C2)CC1 (stereo not given) | 4.76% | 6.522% | 1.719% | 1.008% | -17.16% | -16.78%
[H][C@@]12CCN(S(=O)(=O)CC)C[C@]1(C(=O)NC)CCO2 | - | - | - | - | 22.96% | -
Cc1nc(NC(=O)NC2CC(=O)N(C)C2)nn1C(C)C (stereo not given) | -6.598% | 3.191% | 2.411% | -1.205% | 0.889% | 36.61%
COc1ccccc1CNc1c(O)c(=O)c1=O | -11.75% | 1.22% | -0.7664% | 2.278% | 14.03% and 15.08% | -3.093%
Cn1cccc1C(=O)N1C[C@@H]2COC[C@]2(CNS(C)(=O)=O)C1 | 3.427% | 0% | -5.097% | -2.737% | - | -31.24%
Cc1noc(NS(=O)(=O)c2ccc(Cl)s2)c1C | -14.4% | 12.64% | 8.844% | 1.845% | 7.647% | -

Some entries from above, unchanged:

| structure | A | B | C | D | E | F |
|---|---|---|---|---|---|---|
| `Cn1c(CCNc2nccnc2C#N)nc2ccc(F)cc21` | -1.973% | 5.464% | 2.578% | -3.667% | 21.91% | -5.839% |
| `CCNC(=O)N1CC[C@H]2CC(=O)N(CCN3CCNC3=O)CC[C@H]2C1` | -7.009% | 9.901% | 4.342% | 7.901% | - | 8.525% |
| `CC(C)CC(CO)NS(=O)(=O)Cc1ccon1` (stereo not given) | -6.303% | 4.95% | 3.205% | 4.612% | 4.617% | -4.127% |
| `N#Cc1ccc(CC(=O)N2CCCC(n3cccn3)C2)cc1` (stereo not given) | -11.24% | -2.521% | 4.872% | 1.08% | -18.21% | 6.859% |